This note sets out measurements from doi:10.1101/2020.04.06.026963.

Protein sequences, listed by entry. Tags and fused reporters are not part of them. Lines headed by an entry give the natural chain unless they say otherwise; changes in a name come on top.
UniProt P15923: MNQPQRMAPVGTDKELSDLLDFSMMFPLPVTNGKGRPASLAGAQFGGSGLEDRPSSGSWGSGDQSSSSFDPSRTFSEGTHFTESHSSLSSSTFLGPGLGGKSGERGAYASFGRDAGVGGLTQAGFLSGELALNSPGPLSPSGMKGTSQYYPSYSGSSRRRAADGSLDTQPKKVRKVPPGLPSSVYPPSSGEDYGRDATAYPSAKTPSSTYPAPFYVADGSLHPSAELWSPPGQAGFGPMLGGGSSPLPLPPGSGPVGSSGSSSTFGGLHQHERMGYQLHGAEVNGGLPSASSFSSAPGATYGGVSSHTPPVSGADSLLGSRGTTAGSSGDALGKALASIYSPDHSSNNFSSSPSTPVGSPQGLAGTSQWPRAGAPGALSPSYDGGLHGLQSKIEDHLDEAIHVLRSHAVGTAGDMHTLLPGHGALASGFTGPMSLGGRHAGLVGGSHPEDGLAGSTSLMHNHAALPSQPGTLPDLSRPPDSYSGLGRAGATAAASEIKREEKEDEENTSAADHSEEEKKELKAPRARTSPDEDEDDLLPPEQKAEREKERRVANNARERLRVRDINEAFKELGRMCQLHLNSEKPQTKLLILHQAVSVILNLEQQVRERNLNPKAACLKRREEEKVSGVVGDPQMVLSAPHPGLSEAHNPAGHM
UniProt Q99081: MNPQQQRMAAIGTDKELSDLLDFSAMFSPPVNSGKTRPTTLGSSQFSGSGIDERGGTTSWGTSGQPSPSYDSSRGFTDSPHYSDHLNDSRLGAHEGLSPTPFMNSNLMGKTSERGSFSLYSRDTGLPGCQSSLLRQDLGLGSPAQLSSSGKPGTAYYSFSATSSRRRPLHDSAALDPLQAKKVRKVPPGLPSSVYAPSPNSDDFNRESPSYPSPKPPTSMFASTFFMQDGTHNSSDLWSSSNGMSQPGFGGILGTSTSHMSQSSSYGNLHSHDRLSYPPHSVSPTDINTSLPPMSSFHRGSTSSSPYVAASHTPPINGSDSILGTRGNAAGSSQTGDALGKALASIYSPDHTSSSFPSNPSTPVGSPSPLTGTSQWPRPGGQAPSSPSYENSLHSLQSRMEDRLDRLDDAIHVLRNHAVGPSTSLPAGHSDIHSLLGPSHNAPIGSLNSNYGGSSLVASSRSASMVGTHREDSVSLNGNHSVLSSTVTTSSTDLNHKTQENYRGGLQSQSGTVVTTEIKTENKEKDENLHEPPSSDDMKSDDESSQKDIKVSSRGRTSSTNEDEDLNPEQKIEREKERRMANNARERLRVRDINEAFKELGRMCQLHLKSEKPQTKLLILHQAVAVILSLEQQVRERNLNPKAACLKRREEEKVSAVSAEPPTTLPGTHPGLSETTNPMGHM
UniProt Q61286: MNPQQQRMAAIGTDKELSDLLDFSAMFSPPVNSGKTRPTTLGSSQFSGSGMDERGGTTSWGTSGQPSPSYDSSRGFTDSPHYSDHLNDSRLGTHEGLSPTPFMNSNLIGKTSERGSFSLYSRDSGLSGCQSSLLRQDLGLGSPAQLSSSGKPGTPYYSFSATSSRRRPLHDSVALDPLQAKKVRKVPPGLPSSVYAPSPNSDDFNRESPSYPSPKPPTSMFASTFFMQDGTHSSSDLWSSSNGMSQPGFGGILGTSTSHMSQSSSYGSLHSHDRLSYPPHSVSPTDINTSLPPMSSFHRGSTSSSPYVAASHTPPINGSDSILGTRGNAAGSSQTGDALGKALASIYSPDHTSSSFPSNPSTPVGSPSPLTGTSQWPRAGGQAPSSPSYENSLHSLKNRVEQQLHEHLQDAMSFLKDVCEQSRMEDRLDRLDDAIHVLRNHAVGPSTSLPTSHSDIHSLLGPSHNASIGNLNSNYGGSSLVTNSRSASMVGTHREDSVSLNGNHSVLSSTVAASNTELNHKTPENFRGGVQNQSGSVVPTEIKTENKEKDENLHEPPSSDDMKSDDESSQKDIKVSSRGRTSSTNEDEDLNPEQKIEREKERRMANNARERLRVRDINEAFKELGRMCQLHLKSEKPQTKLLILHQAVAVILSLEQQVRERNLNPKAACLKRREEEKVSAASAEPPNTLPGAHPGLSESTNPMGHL

No constants are given. Whether binding was seen depends on the method and setting. In cells and extracts the contact can be indirect. Some results given as binding are weak or reduced against the parent protein; the word gives no strength. For some assays here: Where a sequence is shown, tags or fusion partners need not be part of it.

Holding throughout (experiment): co-IP
The target of one assay is T1, Flag-tagged ID4 protein (UniProt P47928).
T1 sequence: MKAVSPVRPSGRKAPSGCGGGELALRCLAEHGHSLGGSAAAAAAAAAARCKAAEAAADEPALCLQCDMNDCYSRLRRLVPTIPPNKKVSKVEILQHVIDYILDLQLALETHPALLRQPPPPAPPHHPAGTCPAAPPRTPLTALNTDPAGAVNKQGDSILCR

Assay [1] deals with T2, Inhibitor of Differentiation 4 (ID4) (human (endogenous in PMC42)) (UniProt P47928).
T2 sequence: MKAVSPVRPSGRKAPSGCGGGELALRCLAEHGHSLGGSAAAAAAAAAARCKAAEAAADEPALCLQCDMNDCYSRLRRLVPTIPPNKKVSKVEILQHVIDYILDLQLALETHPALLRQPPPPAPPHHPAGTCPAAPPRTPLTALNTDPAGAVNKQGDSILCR

Assay [2] has as its target E2A (human (endogenous in PMC42)) (UniProt P15923).
Assay [3] has as its target HEB (human (endogenous in PMC42)) (UniProt Q99081).
Assay [4] deals with HEB (mouse (endogenous in mammary gland)) (UniProt Q61286).
Assay [5] deals with E2A (human (endogenous in MCF10A)) (UniProt P15923).
The target in assay [6] is HEB (human (endogenous in MCF10A)) (UniProt Q99081).
For assay [7], the target named is HEB (mouse (endogenous in Comma-Dβ)) (UniProt Q61286).

Regarding HEB (from UniProt Q99081 1-682), the binding entry (with Flag-tagged ID4 protein; in assay [1]) was “binds” in each case.

B1: Inhibitor of Differentiation 4 (ID4) (protein, UniProt P47928 1-161)
chain: MKAVSPVRPSGRKAPSGCGGGELALRCLAEHGHSLGGSAAAAAAAAAARCKAAEAAADEPALCLQCDMNDCYSRLRRLVPTIPPNKKVSKVEILQHVIDYILDLQLALETHPALLRQPPPPAPPHHPAGTCPAAPPRTPLTALNTDPAGAVNKQGDSILCR
For B1, the binding result in assay [2] and in assay [3] was “binds” in each case.

B2: FlagV5-tagged ID4 protein (protein, UniProt P41139 1-161)
chain: MKAVSPVRPSGRKAPSGCGGGELALRCLAEHGHSLGGSAAAAAAAAAARCKAAEAAADEPALCLQCDMNDCYSRLRRLVPTIPPNKKVSKVEILQHVIDYILDLQLALETHPALLRQPPPPAPPLHPAGACPVAPPRTPLTALNTDPAGAVNKQGDSILCR
In the case of B2, the binding result in assay [4] is recorded as “binds”.

B3: Flag-tagged ID4 protein (protein, UniProt P47928 1-161)
chain: MKAVSPVRPSGRKAPSGCGGGELALRCLAEHGHSLGGSAAAAAAAAAARCKAAEAAADEPALCLQCDMNDCYSRLRRLVPTIPPNKKVSKVEILQHVIDYILDLQLALETHPALLRQPPPPAPPHHPAGTCPAAPPRTPLTALNTDPAGAVNKQGDSILCR
As to B3, the binding result in assay [5] and in assay [6] was “binds” each time.

B4: Inhibitor of Differentiation 4 (ID4) (protein, UniProt P41139 1-161)
chain: MKAVSPVRPSGRKAPSGCGGGELALRCLAEHGHSLGGSAAAAAAAAAARCKAAEAAADEPALCLQCDMNDCYSRLRRLVPTIPPNKKVSKVEILQHVIDYILDLQLALETHPALLRQPPPPAPPLHPAGACPVAPPRTPLTALNTDPAGAVNKQGDSILCR
Take B4: in assay [7], the binding entry was “binds”.
